*: point of attachment. FITC = O=C1OC2(c3ccc(O)cc3Oc3cc(O)ccc32)c2ccc(NC(=S)*)cc21; Ahx = NCCCCCC(=O)O
Experiment: general procedure: Fmoc solid-phase peptide synthesis; 2-chlorotityl-N-Fmoc-hydroxylamine resin (0.69 mmol/g); Sieber amide resin; HCTU/N,N-diisopropylethylamine; HBTU/N,N-diisopropylethylamine
Conditions: whole synthesis; for final HPLC purity: analytical reverse-phase HPLC and LC-MS

Q: For Ac-Lys-Gly-Gly-Ala-Hao-Arg-His-NH2, which isolated yield is on record?
A: 1%

Q: What about the “final HPLC purity” value of the same substance?
A: 91% purity

Q: Which isolated yield does the source give for “FITC-Ahx-Lys-Gly-Gly-Ala-Hao-Arg-His-NH2” here?
A: 20%

Q: And the “final HPLC purity” value?
A: 95% purity

Q: Which isolated yield does the source give for “FITC-Ahx-Ser-Glu-Arg-Gly-Lys(Ac)Gly-GLy-Lys-NH2” here?
A: 10%

Q: What about the “final HPLC purity” value of the same substance?
A: 91% purity

Q: With {FITC-Ahx}-KAARK(Ac)SA-NH2 as the substance, how does the isolated yield read?
A: 14%

Q: What about the “final HPLC purity” value of the same substance?
A: 98% purity

Q: Which isolated yield does the source give for {FITC-Ahx}-KGGAK(Ac)RH-NH2 here?
A: 33%

Q: And the “final HPLC purity” value?
A: >99% purity

Q: With {FITC-Ahx}-TARK(Ac)STG-NH2 as the substance, how does the isolated yield read?
A: 17%

Q: And the “final HPLC purity” value?
A: 98% purity

Q: For {FITC-Ahx}-TGGK(Ac)APR-NH2, which isolated yield is on record?
A: 16%

Q: What about the “final HPLC purity” value of the same substance?
A: 98% purity

Reference: PMC4848466 (Nature Communications, 2016)
